# According to PubChem BioAssay AID770 (SRMLSC, 2007):
# The other results are listed elsewhere or left out.
# Assay: HT29 colon tumor cell growth inhibition, primary screen, imaging, high content imaging, 24 h, CellTiter-Glo (AID 770);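 on condensed nuclei: share of cells whose nuclear area falls below control median minus 1.5 SD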
# Settings: HT29 cell number by imaging, at 10 µM, stronger effect = higher value; condensed nuclei: measured here: percent cells with condensed nuclei; growth inhibition: measured here: ATP CellTiter-Glo viability
SMILES,condensed nuclei [%],growth inhibition [%]
CCN(CC)CC(O)COC(=O)C(O)(c1ccccc1)C1CCCCC1 (stereo unspecified),2.75,13.8
Cc1ccc(OCC(=O)OC2CN3CCC2CC3)cc1 (stereo unspecified),3.51,4.02
Cc1cccc(OCC(=O)OC2CN3CCC2CC3)c1 (stereo unspecified),2.12,-0.56
